No constants are given. Whether binding was seen depends on the method and setting. Some binding calls cover weakened binding; strength is not graded here.
Tests used:
[1] = target: human CD94 on cells (human) (UniProt Q13241); experiment: flow cytometry, AF647-conjugated antibody on CD94-transfected L cells and normal donor PBMC
[2] = target: human CD94 on cells (human) (UniProt Q13241); experiment: flow cytometry on wild-type and CRISPR-Cas9 CD94 knock-out KHYG-1 and NK92 cells
[3] = target: human CD94 on cells (human) (UniProt Q13241); experiment: flow cytometry, AF647-conjugated antibody on NK cell lines

By UniProt entry, the sequences of proteins in these tests, tags left out. Where a name states a change or a piece, a line headed by the entry shows the natural chain unless it says otherwise.
UniProt Q13241: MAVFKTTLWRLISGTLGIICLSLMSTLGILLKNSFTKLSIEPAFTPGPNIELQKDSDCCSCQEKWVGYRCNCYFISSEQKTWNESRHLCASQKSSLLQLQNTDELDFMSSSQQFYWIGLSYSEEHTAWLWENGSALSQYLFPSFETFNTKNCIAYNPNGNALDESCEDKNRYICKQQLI

Measured: binding

B1: UT-CD94 monoclonal antibody (murine anti-human CD94 monoclonal antibody generated by hybridoma technology) (antibody, V domains shown)
VH: EVQLQQSGAELVKPGASVKLSCTASGFNIKDTYMHWVKQRPEQGLEWIGRIDPANGNTQYDPKFQGKATIPADTSSNTAYLQLSSLTSEDTAVYYCVYGRGSAWFAFWGQGTLVTVSA
VL: DIQMTQTTSSLSASLGDRVTISCRASQDISNYLNWYQQKPDGTVKLLIYYTSRLHSGVPSRFSGSGSGTDYSLTISNLEQEDIATYFCQQGNTLPWTFGGGTKLEIK
binds: all assays above

— US20250101113A1
